Measurements reported in the supplement of paper PMC10849652.
The list shows a part of the results.

Protein sequences, listed by entry. Tags and fused reporters are not part of them. Lines headed by an entry give the natural chain unless they say otherwise; changes in a name come on top.
UniProt O75179: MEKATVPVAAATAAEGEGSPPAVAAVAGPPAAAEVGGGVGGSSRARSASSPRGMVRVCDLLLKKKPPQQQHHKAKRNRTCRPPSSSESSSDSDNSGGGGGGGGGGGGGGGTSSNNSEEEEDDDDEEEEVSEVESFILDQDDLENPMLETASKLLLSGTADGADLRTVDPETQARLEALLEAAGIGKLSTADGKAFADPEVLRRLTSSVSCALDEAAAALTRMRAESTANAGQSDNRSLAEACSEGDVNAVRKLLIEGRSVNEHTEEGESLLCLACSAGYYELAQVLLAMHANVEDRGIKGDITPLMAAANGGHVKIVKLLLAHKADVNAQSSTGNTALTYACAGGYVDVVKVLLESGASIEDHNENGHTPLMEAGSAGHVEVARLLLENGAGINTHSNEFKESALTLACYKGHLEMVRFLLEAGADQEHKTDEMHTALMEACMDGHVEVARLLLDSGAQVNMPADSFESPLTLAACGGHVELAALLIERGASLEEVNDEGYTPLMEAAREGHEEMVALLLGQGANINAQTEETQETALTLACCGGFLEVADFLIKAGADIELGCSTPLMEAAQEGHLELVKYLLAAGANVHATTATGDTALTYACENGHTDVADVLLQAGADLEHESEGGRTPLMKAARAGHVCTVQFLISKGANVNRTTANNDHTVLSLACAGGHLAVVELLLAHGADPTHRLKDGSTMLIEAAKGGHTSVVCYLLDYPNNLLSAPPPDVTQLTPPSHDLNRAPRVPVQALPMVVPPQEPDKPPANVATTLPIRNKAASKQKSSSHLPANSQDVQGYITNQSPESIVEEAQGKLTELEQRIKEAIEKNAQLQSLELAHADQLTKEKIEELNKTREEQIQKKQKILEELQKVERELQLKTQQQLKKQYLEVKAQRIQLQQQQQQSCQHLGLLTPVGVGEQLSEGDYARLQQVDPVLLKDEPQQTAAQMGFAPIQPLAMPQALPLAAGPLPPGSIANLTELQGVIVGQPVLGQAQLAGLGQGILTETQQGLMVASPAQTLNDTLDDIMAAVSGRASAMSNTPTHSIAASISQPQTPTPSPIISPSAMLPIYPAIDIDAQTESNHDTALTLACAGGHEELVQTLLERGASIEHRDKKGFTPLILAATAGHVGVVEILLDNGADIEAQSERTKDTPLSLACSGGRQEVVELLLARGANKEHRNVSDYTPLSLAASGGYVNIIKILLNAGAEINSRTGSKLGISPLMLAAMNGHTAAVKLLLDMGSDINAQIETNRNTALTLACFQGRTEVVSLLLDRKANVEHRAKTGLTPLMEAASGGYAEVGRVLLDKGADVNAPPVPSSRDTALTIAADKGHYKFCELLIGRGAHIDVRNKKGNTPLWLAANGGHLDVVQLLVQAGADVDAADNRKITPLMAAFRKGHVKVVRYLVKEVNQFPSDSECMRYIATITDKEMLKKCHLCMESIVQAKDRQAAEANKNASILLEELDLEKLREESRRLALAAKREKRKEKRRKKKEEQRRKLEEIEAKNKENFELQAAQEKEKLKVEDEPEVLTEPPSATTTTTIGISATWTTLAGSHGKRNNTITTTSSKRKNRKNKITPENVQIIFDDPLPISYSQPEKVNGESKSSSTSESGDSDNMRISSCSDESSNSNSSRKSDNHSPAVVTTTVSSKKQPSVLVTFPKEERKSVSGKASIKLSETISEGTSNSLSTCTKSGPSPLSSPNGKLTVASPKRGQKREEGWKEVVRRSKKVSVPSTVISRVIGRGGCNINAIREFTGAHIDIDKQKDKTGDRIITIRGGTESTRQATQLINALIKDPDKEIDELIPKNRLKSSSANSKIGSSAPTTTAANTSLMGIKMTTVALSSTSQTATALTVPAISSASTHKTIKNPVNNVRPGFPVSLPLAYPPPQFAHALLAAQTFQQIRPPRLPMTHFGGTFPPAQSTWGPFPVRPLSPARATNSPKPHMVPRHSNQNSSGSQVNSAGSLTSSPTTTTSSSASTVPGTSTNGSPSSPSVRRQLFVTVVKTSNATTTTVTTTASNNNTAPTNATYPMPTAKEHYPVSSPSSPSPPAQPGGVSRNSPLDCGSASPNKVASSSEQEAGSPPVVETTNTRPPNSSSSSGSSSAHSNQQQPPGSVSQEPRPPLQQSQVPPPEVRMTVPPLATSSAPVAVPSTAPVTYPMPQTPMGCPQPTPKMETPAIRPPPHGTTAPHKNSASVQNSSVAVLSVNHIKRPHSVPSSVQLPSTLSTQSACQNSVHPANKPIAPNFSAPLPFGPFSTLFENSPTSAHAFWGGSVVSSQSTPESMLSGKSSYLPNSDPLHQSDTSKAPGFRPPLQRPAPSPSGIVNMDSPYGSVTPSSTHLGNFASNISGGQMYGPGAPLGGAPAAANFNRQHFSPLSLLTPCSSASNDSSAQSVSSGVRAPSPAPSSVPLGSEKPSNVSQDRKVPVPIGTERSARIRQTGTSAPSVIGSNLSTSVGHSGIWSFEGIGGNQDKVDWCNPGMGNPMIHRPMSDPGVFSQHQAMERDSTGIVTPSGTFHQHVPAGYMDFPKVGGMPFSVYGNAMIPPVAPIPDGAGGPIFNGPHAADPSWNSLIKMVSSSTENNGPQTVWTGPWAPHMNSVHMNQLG
UniProt P08133: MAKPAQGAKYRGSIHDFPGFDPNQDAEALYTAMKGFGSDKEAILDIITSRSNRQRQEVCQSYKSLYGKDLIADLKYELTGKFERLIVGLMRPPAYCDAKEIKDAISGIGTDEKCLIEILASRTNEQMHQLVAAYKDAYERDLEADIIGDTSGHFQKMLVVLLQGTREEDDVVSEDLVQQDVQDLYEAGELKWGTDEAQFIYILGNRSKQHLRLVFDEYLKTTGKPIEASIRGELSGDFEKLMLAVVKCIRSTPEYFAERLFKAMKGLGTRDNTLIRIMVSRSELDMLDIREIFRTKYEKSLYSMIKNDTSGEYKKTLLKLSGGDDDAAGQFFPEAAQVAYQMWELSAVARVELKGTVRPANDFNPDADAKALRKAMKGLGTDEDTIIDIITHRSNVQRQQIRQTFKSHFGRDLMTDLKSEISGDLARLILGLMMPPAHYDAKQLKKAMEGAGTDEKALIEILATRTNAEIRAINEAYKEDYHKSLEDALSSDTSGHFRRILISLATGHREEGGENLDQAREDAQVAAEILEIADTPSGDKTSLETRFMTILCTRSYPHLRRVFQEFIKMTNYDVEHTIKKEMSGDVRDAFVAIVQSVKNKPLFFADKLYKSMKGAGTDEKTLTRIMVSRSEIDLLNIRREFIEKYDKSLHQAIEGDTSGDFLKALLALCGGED
UniProt P63010: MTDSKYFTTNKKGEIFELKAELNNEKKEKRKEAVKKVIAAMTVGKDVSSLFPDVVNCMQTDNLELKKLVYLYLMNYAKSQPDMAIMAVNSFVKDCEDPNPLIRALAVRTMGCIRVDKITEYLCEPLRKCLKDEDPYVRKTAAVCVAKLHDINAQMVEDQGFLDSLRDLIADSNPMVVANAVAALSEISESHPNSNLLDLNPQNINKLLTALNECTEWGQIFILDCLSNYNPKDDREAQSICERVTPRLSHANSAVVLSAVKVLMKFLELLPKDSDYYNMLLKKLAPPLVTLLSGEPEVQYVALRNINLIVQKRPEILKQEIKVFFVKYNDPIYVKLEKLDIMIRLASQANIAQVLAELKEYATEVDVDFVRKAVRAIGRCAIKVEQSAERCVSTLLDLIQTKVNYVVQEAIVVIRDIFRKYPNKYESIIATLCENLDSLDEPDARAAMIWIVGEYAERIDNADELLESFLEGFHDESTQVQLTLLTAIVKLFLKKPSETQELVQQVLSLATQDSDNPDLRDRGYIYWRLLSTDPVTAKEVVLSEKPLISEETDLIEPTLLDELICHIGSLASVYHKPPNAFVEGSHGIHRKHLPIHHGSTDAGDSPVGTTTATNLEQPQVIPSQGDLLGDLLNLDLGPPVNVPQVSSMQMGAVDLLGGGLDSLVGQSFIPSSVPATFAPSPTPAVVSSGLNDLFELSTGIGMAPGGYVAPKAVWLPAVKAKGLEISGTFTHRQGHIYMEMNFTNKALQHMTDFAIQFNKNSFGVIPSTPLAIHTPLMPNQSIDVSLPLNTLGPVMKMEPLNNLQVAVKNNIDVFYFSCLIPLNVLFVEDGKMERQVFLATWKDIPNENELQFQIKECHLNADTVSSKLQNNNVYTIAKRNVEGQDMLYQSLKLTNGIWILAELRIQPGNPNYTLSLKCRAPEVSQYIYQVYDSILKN
UniProt P07355, whole entry, looked up: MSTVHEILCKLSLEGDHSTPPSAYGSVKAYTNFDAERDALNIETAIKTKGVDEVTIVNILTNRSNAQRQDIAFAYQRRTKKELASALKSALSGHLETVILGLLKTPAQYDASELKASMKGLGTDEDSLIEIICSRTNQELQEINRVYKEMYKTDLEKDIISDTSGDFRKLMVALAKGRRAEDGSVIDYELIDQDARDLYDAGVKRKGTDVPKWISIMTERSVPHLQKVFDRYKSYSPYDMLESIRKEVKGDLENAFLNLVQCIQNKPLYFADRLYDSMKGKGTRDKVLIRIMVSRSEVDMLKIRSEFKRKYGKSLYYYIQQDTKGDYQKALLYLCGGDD
UniProt Q8IZ07: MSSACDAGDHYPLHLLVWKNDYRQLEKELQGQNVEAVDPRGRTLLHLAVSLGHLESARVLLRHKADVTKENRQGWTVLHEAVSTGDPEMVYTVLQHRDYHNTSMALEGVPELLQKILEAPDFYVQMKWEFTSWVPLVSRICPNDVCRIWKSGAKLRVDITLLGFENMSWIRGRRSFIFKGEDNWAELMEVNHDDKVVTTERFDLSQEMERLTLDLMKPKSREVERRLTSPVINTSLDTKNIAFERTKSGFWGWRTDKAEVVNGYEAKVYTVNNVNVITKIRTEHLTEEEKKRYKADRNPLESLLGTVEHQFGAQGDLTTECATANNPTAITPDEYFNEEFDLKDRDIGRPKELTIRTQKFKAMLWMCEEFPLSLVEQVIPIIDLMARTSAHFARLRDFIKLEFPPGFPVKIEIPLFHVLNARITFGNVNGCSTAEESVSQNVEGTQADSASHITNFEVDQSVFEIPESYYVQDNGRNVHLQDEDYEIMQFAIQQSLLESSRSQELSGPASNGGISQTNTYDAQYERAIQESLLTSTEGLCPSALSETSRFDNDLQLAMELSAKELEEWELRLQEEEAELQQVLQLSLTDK
UniProt Q9UJX3, whole entry, looked up: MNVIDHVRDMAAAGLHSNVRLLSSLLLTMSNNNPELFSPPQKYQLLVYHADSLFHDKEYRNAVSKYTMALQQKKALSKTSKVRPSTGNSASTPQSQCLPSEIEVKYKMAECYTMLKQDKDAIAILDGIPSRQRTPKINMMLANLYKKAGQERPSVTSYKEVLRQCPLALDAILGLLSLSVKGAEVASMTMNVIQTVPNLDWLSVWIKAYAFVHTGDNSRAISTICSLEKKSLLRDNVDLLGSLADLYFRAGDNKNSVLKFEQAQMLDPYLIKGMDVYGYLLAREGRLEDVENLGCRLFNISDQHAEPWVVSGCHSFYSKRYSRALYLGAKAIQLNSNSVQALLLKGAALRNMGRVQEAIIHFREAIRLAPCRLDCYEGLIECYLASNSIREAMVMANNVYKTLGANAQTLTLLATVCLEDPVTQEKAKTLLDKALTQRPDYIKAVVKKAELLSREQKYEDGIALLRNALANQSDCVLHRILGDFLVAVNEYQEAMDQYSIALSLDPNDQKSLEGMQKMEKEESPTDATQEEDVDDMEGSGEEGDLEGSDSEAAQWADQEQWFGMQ
UniProt Q96BI3, whole entry, looked up: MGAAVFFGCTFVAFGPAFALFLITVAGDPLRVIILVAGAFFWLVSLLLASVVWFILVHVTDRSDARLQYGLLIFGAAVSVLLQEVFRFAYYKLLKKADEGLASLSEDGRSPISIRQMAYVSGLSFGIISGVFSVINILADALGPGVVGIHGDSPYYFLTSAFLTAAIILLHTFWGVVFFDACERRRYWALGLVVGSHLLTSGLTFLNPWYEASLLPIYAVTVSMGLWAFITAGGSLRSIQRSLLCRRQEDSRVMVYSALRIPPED
UniProt O14791: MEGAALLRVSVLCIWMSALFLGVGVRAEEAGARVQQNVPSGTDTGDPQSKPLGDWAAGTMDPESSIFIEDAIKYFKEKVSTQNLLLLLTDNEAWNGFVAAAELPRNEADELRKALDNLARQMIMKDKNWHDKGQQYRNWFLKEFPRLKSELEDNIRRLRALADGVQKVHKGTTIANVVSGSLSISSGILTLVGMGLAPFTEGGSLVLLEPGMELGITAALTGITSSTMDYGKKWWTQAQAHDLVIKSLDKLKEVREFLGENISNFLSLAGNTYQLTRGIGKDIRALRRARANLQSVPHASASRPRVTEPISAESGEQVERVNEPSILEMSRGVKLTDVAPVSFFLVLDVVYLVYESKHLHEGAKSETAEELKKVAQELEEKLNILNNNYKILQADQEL
UniProt Q86W74: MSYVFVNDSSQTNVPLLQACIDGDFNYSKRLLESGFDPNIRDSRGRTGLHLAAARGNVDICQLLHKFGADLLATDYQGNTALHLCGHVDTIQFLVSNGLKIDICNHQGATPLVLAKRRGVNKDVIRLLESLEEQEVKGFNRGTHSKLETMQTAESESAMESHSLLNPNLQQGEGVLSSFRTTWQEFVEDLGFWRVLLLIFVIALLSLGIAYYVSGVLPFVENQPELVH

Experiments:
Experiment in all cases: log2 fold change, soluble protein after heating vs DMSO (PISA); higher = thermal stabilisation; K562 cells, 10 uM, 30 min; active = over 0.2 and 3.5 SD of the protein, either way, in both replicates (recomputed)
[1] = compound: C1=CC=C(C=C1)[C@H](COC2=CC3=C(C=C2)NC(=O)N3)NC(=O)C4=CC=CN(C4=O)CC5=CC(=C(C=C5)F)F
Method in brief: (§1)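 Aliquots of K562 cells (2×10^6 cells/mL) treated with 10 μM compound for 30 min were heated for 3 min over 48°C-58°C. After pooling and extraction in PBS with 0.5% NP-40 at 4°C, soluble protein from a 21,000xg, 90 min spin was quantified by TMTpro 16plex LC-MS/MS with channel sums equalised. Thermal stability is expressed against control samples, from duplicates, as a log2 fold change.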

[2] = compound: CC1=C(SC2=C1C(=N[C@H](C3=NN=C(N32)C)CC(=O)N)C4=CC=C(C=C4)Cl)C
Method in brief: as §1

[3] = compound: CC1=C2C(=CC=C1)N=C(N(C2=O)C3=CC=CC=C3C)CN4C=NC5=C(N=CN=C54)N
Method in brief: as §1

[4] = compound: Cc1sc2c(c1C)C(c1ccc(Cl)cc1)=N[C@@H](CC(=O)OC(C)(C)C)c1nnc(C)n1-2
Method in brief: as §1

[5] = compound: c1ccc([C@@H]2C[C@H]2NC2CCNCC2)cc1
Method in brief: as §1

Measured: log2 fold change

ANKRD17 (UniProt O75179)
inactive: [1] 0 | [2] 0.019 | [3] 0.087 | [4] 0.031 | [5] -0.019

ANXA6 (UniProt P08133)
inactive: [1] -0.014 | [2] 0.043 | [3] 0.114 | [4] 0.005 | [5] 0.001

AP2B1 isoform 2 (UniProt P63010)
inactive: [1] 0.023 | [2] -0.017 | [3] -0.016 | [4] 0.03 | [5] -0.002

ANXA2 isoform 2 (UniProt P07355)
inactive: [1] -0.047 | [2] 0.027 | [3] 0.005 | [4] -0.04 | [5] -0.044

Reprinted from the results shown (2 entries):
AP2B1 isoform 2 (UniProt P63010)
inactive: [1] 0.023 | [2] -0.017 | [3] -0.016 | [4] 0.03 | [5] -0.002

ANXA2 isoform 2 (UniProt P07355)
inactive: [1] -0.047 | [2] 0.027 | [3] 0.005 | [4] -0.04 | [5] -0.044

Remaining list, next part:

ANKRD13A (UniProt Q8IZ07)
inactive: [1] -0.039 | [2] -0.004 | [3] 0.071 | [4] -0.014 | [5] -0.028

ANAPC7 (UniProt Q9UJX3)
inactive: [1] 0.027 | [2] -0.006 | [3] -0.007 | [4] 0.02 | [5] -0.029

APH1A (UniProt Q96BI3)
inactive: [1] -0.015 | [2] 0.009 | [3] -0.21 | [4] -0.08 | [5] -0.153

APOL1 isoform 2 (UniProt O14791)
inactive: [1] -0.05 | [2] -0.235 | [4] -0.222 | [5] -0.11

ANKRD46 (UniProt Q86W74)
inactive: [1] -0.027 | [2] -0.016 | [3] -0.023 | [4] -0.096 | [5] -0.004
